# Test results taken from the supplement of paper PMC8728848.
# The other results are listed elsewhere or left out.
# B1: HopZSSI-T (Helicobacter pylori), B5Z6D0 (protein)
# chain: MGSSHHHHHHSSGLVPRGSHMENLYFQGEDNGFFISAGYQIGEAAQMVKNTGELKKLSDTYENLSNLLTNFNNLNQAVTNASSPSEINAAIDNLKANTQGLTGEKTNSPAYQAVYLALNAAVGLWNVIAYNVQCGPGNSSQQSVTFEGQPGHNSSSINCNLTGYNNGVSGPLSIDNFKQLNQAYQVLQQALKQGVPVLNNTNQKIEVKVTTQTNGQSSKETTTTTTTNDAQTLLQEASKMIDVLTTNCPWVNHNPGQNGGAPWGLIRQECVSGFATEFSAVTSMIKNAQEIVTQAQSLNANQNNQNAPQDFNPYTSADRAFAQNMLNHAQAQAKILELADQMKKDLNTIPSQFITNYLAACRIDGTTPSQGVTNNTWGAGCAYVEETITALNNSLAHFGTQAEQIKQSELLARTILDFRGSLSTLNSTYNSITTTASNTPNSPFLKNLISQSTNPNNPGGLQAVYQVNQSAYSQLLSATQELGHNPFRRIGLISSQT
# Assays:
# Experiment in all cases: glycan array binding signal (z-score within array); higher = stronger binding
# Settings in all cases: glycan notation: IUPAC condensed, linker removed
# [1] = biological target: Fuc(a1-2)Gal(b1-4)GlcNAc(b1-3)Gal(b1-4)GlcNAc(b1-2)Man(a1-3)[Fuc(a1-2)Gal(b1-4)GlcNAc(b1-3)Gal(b1-4)GlcNAc(b1-2)Man(a1-6)]Man(b1-4)GlcNAc(b1-4)GlcNAc
# Method in brief: (§1)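 Glycan array data were curated from 3228 arrays in the Consortium for Functional Glycomics database and kept only where the protein sequence was available. Glycan names were converted to IUPAC-condensed notation, and columns mapping to the same glycan were averaged. The binding signal is a within-array Z-score, averaged across arrays of the same protein sequence at different concentrations or buffers and across linkers. Negative Z-scores can be read as non-binding.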
# [2] = biological target: Fuc(a1-2)Gal(b1-4)GlcNAc(b1-3)Gal(b1-4)GlcNAc(b1-3)Gal(b1-4)GlcNAc
# Method in brief: as §1
# [3] = biological target: Fuc(a1-2)Gal(b1-4)GlcNAc(b1-3)GalNAc
# Method in brief: as §1
# [4] = biological target: Fuc(a1-2)Gal(b1-4)GlcNAc(b1-3)[Fuc(a1-2)Gal(b1-4)GlcNAc(b1-6)]GalNAc
# Method in brief: as §1
# [5] = biological target: Fuc(a1-2)Gal(b1-4)GlcNAc(b1-3)[Fuc(a1-3)[Gal(b1-4)]GlcNAc(b1-6)]Gal(b1-4)Glc
# Method in brief: as §1
# [6] = biological target: Fuc(a1-2)Gal(b1-4)GlcNAc(b1-6)GalNAc
# Method in brief: as §1
# [7] = biological target: Fuc(a1-2)Gal(b1-4)GlcNAc6S
# Method in brief: as §1
# [8] = biological target: Fuc(a1-2)Gal(b1-4)[Fuc(a1-3)]GlcNAc
# Method in brief: as §1
# [9] = biological target: Fuc(a1-2)Gal(b1-4)[Fuc(a1-3)]GlcNAc(b1-2)Man(a1-3)[Fuc(a1-2)Gal(b1-4)[Fuc(a1-3)]GlcNAc(b1-2)Man(a1-6)]Man(b1-4)GlcNAc(b1-4)[Fuc(a1-6)]GlcNAc
# Method in brief: as §1
# [10] = biological target: Fuc(a1-2)Gal(b1-4)[Fuc(a1-3)]GlcNAc(b1-2)[Fuc(a1-2)Gal(b1-4)[Fuc(a1-3)]GlcNAc(b1-4)]Man(a1-3)[Fuc(a1-2)Gal(b1-4)[Fuc(a1-3)]GlcNAc(b1-2)Man(a1-6)]Man(b1-4)GlcNAc(b1-4)GlcNAc
# Method in brief: as §1
# [11] = biological target: Fuc(a1-2)Gal(b1-4)[Fuc(a1-3)]GlcNAc(b1-3)Gal(b1-4)[Fuc(a1-3)]GlcNAc
# Method in brief: as §1
# [12] = biological target: Fuc(a1-2)Gal(b1-4)[Fuc(a1-3)]GlcNAc(b1-3)Gal(b1-4)[Fuc(a1-3)]GlcNAc(b1-3)Gal(b1-4)[Fuc(a1-3)]GlcNAc
# Method in brief: as §1
# [13] = biological target: Fuc(a1-2)Gal(b1-4)[Fuc(a1-3)]GlcNAc(b1-3)GalNAc
# Method in brief: as §1
# [14] = biological target: Fuc(a1-2)Gal(b1-4)[Fuc(a1-3)]GlcNAc(b1-3)[Neu5Ac(a2-6)Gal(b1-4)GlcNAc(b1-6)]Gal(b1-4)Glc
# Method in brief: as §1
# [15] = biological target: Fuc(a1-2)Gal3S(b1-4)GlcNAc
# Method in brief: as §1
# [16] = biological target: Fuc(a1-2)Gal6S(b1-3)GlcNAc
# Method in brief: as §1
# [17] = biological target: Fuc(a1-2)Gal6S(b1-3)GlcNAc6S
# Method in brief: as §1
# Fuc(a1-2)Gal6S(b1-4)Glc = biological target: Fuc(a1-2)Gal6S(b1-4)Glc
# Method in brief: as §1
# [18] = biological target: Fuc(a1-2)Gal6S(b1-4)Glc6S
# Method in brief: as §1
# Fuc(a1-2)[Gal(a1-3)]Gal = biological target: Fuc(a1-2)[Gal(a1-3)]Gal
# Method in brief: as §1
# [19] = biological target: Fuc(a1-2)[Gal(a1-3)]Gal(b1-3)GalNAc
# Method in brief: as §1
# [20] = biological target: Fuc(a1-2)[Gal(a1-3)]Gal(b1-3)GalNAc(b1-3)Gal(a1-4)Gal(b1-4)Glc
# Method in brief: as §1
# [21] = biological target: Fuc(a1-2)[Gal(a1-3)]Gal(b1-3)GlcNAc
# Method in brief: as §1
# [22] = biological target: Fuc(a1-2)[Gal(a1-3)]Gal(b1-3)GlcNAc(b1-2)Man(a1-3)[Fuc(a1-2)[Gal(a1-3)]Gal(b1-3)GlcNAc(b1-2)Man(a1-6)]Man(b1-4)GlcNAc(b1-4)GlcNAc
# Method in brief: as §1
# [23] = biological target: Fuc(a1-2)[Gal(a1-3)]Gal(b1-3)GlcNAc(b1-2)Man(a1-3)[Fuc(a1-2)[Gal(a1-3)]Gal(b1-3)GlcNAc(b1-2)Man(a1-6)]Man(b1-4)GlcNAc(b1-4)[Fuc(a1-6)]GlcNAc
# Method in brief: as §1
# [24] = biological target: Fuc(a1-2)[Gal(a1-3)]Gal(b1-3)GlcNAc(b1-3)GalNAc
# Method in brief: as §1
# [25] = biological target: Fuc(a1-2)[Gal(a1-3)]Gal(b1-3)GlcNAc(b1-6)GalNAc
# Method in brief: as §1
# [26] = biological target: Fuc(a1-2)[Gal(a1-3)]Gal(b1-4)Glc
# Method in brief: as §1
# [27] = biological target: Fuc(a1-2)[Gal(a1-3)]Gal(b1-4)GlcNAc
# Method in brief: as §1
# [28] = biological target: Fuc(a1-2)[Gal(a1-3)]Gal(b1-4)GlcNAc(b1-2)Man
# Method in brief: as §1
# [29] = biological target: Fuc(a1-2)[Gal(a1-3)]Gal(b1-4)GlcNAc(b1-2)Man(a1-3)[Fuc(a1-2)[Gal(a1-3)]Gal(b1-4)GlcNAc(b1-2)Man(a1-6)]Man(b1-4)GlcNAc(b1-4)GlcNAc
# Method in brief: as §1
# [30] = biological target: Fuc(a1-2)[Gal(a1-3)]Gal(b1-4)GlcNAc(b1-2)Man(a1-3)[Fuc(a1-2)[Gal(a1-3)]Gal(b1-4)GlcNAc(b1-2)Man(a1-6)]Man(b1-4)GlcNAc(b1-4)[Fuc(a1-6)]GlcNAc
# Method in brief: as §1
# [31] = biological target: Fuc(a1-2)[Gal(a1-3)]Gal(b1-4)GlcNAc(b1-3)GalNAc
# Method in brief: as §1
# [32] = biological target: Fuc(a1-2)[Gal(a1-3)]Gal(b1-4)GlcNAc(b1-6)GalNAc
# Method in brief: as §1
# [33] = biological target: Fuc(a1-2)[Gal(a1-3)]Gal(b1-4)[Fuc(a1-3)]Glc
# Method in brief: as §1
# [34] = biological target: Fuc(a1-2)[Gal(a1-3)]Gal(b1-4)[Fuc(a1-3)]GlcNAc
# Method in brief: as §1
# [35] = biological target: Fuc(a1-2)[Gal(a1-3)]Gal(b1-4)[Fuc(a1-3)]GlcNAc(b1-3)GalNAc
# Method in brief: as §1
# [36] = biological target: Fuc(a1-2)[Gal(a1-4)]Gal(b1-4)GlcNAc
# Method in brief: as §1
# [37] = biological target: Fuc(a1-2)[GalNAc(a1-3)]Gal
# Method in brief: as §1
# [38] = biological target: Fuc(a1-2)[GalNAc(a1-3)]Gal(b1-3)GalNAc(a1-3)[Fuc(a1-2)]Gal(b1-4)GlcNAc
# Method in brief: as §1
# [39] = biological target: Fuc(a1-2)[GalNAc(a1-3)]Gal(b1-3)GalNAc(b1-3)Gal(a1-4)Gal(b1-4)Glc
# Method in brief: as §1
# [40] = biological target: Fuc(a1-2)[GalNAc(a1-3)]Gal(b1-3)GlcNAc
# Method in brief: as §1
# [41] = biological target: Fuc(a1-2)[GalNAc(a1-3)]Gal(b1-3)GlcNAc(b1-2)Man(a1-3)[Fuc(a1-2)[GalNAc(a1-3)]Gal(b1-3)GlcNAc(b1-2)Man(a1-6)]Man(b1-4)GlcNAc(b1-4)GlcNAc
# Method in brief: as §1
# [42] = biological target: Fuc(a1-2)[GalNAc(a1-3)]Gal(b1-3)GlcNAc(b1-2)Man(a1-3)[Fuc(a1-2)[GalNAc(a1-3)]Gal(b1-3)GlcNAc(b1-2)Man(a1-6)]Man(b1-4)GlcNAc(b1-4)[Fuc(a1-6)]GlcNAc
# Method in brief: as §1
# [43] = biological target: Fuc(a1-2)[GalNAc(a1-3)]Gal(b1-3)GlcNAc(b1-3)GalNAc
# Method in brief: as §1
binder,measurement,setting,value
B1,glycan array binding signal (z-score),[1],0.473
same,glycan array binding signal (z-score),[2],1.29
same,glycan array binding signal (z-score),[3],-0.672
same,glycan array binding signal (z-score),[4],0.122
same,glycan array binding signal (z-score),[5],0.537
same,glycan array binding signal (z-score),[6],0.509
same,glycan array binding signal (z-score),[7],0.416
same,glycan array binding signal (z-score),[8],-0.221
same,glycan array binding signal (z-score),[9],1.17
same,glycan array binding signal (z-score),[10],1.05
same,glycan array binding signal (z-score),[11],0.227
same,glycan array binding signal (z-score),[12],0.188
same,glycan array binding signal (z-score),[13],0.139
same,glycan array binding signal (z-score),[14],-0.243
same,glycan array binding signal (z-score),[15],-0.691
same,glycan array binding signal (z-score),[16],-0.147
same,glycan array binding signal (z-score),[17],0.184
same,glycan array binding signal (z-score),Fuc(a1-2)Gal6S(b1-4)Glc,-0.444
same,glycan array binding signal (z-score),[18],-0.497
same,glycan array binding signal (z-score),Fuc(a1-2)[Gal(a1-3)]Gal,-0.342
same,glycan array binding signal (z-score),[19],0.252
same,glycan array binding signal (z-score),[20],0.585
same,glycan array binding signal (z-score),[21],0.455
same,glycan array binding signal (z-score),[22],-0.111
same,glycan array binding signal (z-score),[23],-0.261
same,glycan array binding signal (z-score),[24],-0.21
same,glycan array binding signal (z-score),[25],-0.366
same,glycan array binding signal (z-score),[26],-0.624
same,glycan array binding signal (z-score),[27],-0.478
same,glycan array binding signal (z-score),[28],-0.277
same,glycan array binding signal (z-score),[29],-0.08
same,glycan array binding signal (z-score),[30],-0.217
same,glycan array binding signal (z-score),[31],-0.158
same,glycan array binding signal (z-score),[32],-0.49
same,glycan array binding signal (z-score),[33],-0.716
same,glycan array binding signal (z-score),[34],0.174
same,glycan array binding signal (z-score),[35],-0.229
same,glycan array binding signal (z-score),[36],0.215
same,glycan array binding signal (z-score),[37],-0.229
same,glycan array binding signal (z-score),[38],-0.494
same,glycan array binding signal (z-score),[39],0.142
same,glycan array binding signal (z-score),[40],-0.52
same,glycan array binding signal (z-score),[41],-0.326
same,glycan array binding signal (z-score),[42],-0.463
same,glycan array binding signal (z-score),[43],0.065

# A run of entries taken from the entries so far, for reference:
binder,measurement,setting,value
B1,glycan array binding signal (z-score),[4],0.122
same,glycan array binding signal (z-score),[5],0.537
same,glycan array binding signal (z-score),[6],0.509
same,glycan array binding signal (z-score),[7],0.416
same,glycan array binding signal (z-score),[8],-0.221
same,glycan array binding signal (z-score),[9],1.17
same,glycan array binding signal (z-score),[10],1.05
same,glycan array binding signal (z-score),[11],0.227
same,glycan array binding signal (z-score),[12],0.188
same,glycan array binding signal (z-score),[13],0.139
